## Primary screen of a compound library

The chains behind the UniProt entries cited, without tags or fusion partners. Residues count along the entry.
UniProt Q8IDJ8, 1-583: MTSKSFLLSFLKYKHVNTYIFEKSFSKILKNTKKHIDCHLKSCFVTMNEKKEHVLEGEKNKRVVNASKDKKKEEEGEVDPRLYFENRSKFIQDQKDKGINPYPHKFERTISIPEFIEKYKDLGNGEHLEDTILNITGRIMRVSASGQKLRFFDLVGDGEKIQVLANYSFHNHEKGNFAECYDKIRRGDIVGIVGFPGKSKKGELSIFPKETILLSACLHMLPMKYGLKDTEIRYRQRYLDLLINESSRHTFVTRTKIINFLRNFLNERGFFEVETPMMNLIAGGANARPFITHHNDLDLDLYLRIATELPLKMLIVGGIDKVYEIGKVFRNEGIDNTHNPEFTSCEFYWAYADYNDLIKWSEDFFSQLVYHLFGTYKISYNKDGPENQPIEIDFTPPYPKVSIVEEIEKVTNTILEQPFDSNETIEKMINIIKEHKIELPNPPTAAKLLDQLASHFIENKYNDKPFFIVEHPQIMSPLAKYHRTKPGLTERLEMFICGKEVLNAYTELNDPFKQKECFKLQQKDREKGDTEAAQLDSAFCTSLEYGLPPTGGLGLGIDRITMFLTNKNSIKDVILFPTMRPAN
UniProt P9WPC5, whole entry: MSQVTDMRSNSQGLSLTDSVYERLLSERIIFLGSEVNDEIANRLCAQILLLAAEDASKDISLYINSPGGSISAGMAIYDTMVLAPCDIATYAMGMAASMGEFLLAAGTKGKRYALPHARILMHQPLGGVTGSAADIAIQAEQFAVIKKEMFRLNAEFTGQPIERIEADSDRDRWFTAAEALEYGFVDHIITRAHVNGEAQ
UniProt P9WPC3, whole entry partner: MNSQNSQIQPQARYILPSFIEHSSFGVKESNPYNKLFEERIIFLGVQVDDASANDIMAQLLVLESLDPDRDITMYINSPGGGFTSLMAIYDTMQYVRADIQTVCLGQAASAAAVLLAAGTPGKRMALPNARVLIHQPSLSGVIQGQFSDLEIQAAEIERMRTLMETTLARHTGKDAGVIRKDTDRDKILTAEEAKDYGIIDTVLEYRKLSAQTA

From ChEMBL document CHEMBL3988442, “University of Dundee, Small-Polar-MMV Screening Library” (2021).

PfKRS1: 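Lysine-tRNA ligase, Plasmodium falciparum 3D7 (UniProt Q8IDJ8). Enzyme assay of the cytosolic lysyl-tRNA synthetase in 384-well plates, read by luminescence. Tested at 30 µM. Direction is inferred from only a few compounds that gave an IC50; most scored high, so higher reads as stronger inhibition. Of about 69,000 compounds tested this way, about 49 (0.071%) reached 50% or more in at least one test.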
ClpP1P2: 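ClpP1P2, Mycobacterium tuberculosis (UniProt P9WPC5 and UniProt P9WPC3). Protease assay of ClpP1P2, read by the AMC dye that it sets free. Compounds at 50 µM. Higher reads as stronger inhibition, judged from the few compounds that gave an IC50. Most other retested compounds had strongly negative values. Size under these conditions: about 69,000 compounds, about 10 of them at 50% or above in at least one test.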

Each number is a percent effect as filed.
How 0% and 100% were set is not recorded. Most values in the screen are low, and negative values occur.
Compounds were drawn at random from those tested, without regard to their results.

| structure | PfKRS1 | ClpP1P2 |
|---|---|---|
| `O=C(c1cccc(NCCOc2ccc(F)cc2)c1)N1CCOCC1` | 0.8138 | -5.777 |
| `CCNC(=O)NC(c1ccc(C)cc1)c1cccc(S(C)(=O)=O)c1` (stereo not drawn) | 2.801 | 8.92 |
| `O=C1CCNc2cc3c(cc2CN1Cc1ccco1)OCO3` | 5.15 | -11.97 |
| `CCOC(=O)CC(C)Nc1nc(C(C)(C)C)nc2c1cnn2C` (stereo not drawn) | -2.945 | 13.39 |
| `c1cncc(N2CCCn3nnc(COCC4CC4)c3C2)c1` | 2.183 | -8.907 |
| `CN(CC1Cc2ccccc2CN1C)C(=O)CSc1ccccn1` (stereo not drawn) | 4.006 | -4.411 |
| `Cc1ccc(N2CCc3ncnc(C4CC4)c3CC2)nn1` | 1.469 | 4.188 |
| `COc1ccc2c(c1)C1(CCNCC1)CC2NC1CC1` (stereo not drawn) | 2.017 | -8.771 |
| `Cc1nc(C)n(CC(C)C(=O)N2CCC(CN3CCOCC3)CC2)n1` (stereo not drawn) | 3.923 | -20.65 |
| `COc1ccc(-c2n[nH]c(C)c2CC(=O)NCC2CCOCC2)cc1` | -2.445 | -12 |
| `CCOC(C)c1nc(CN2CCC(NC(C)C)CC2)cs1` (stereo not drawn) | 2.869 | -6.281 |
| `Cc1cnn(CCNCC(O)COc2ccc(C#N)cc2)c1` (stereo not drawn) | 14.52 | -8.378 |
| `CN1CC[C@H]2[C@H](C[C@@H](Cn3cncn3)N2c2nccs2)C1` | 3.915 | -3.512 |
| `Cc1nc(NC(=O)C(C)N(C)Cc2cccc(C#N)c2)sc1C` (stereo not drawn) | 2.327 | -7.289 |
| `COc1cccc(NC(=O)CN(C(C)C)C2CC2)c1` | 2.526 | -1.713 |
| `c1cnc(N2CCN(Cc3nnnn3C3CC3)CC2)nc1` | 5.515 | 7.774 |
| `O=C(CN1CCS(=O)(=O)CC1)NC1CCCc2ccccc21` (stereo not drawn) | 9.542 | 6.322 |
| `COCc1cc(N(C)Cc2cnccn2)nc(C(C)(C)C)n1` | -0.1588 | -6.999 |
| `O=C(NC[C@H]1C[C@@H]2CCN1C[C@@H]2CN1CCOCC1)Nc1ccccc1` | 4.366 | -5.095 |
| `CC(C)c1nc(CN2CCCN(Cc3nccn3C)CC2)no1` | -0.1408 | -11.87 |
| `COc1ccc(Cl)cc1C(=O)N1CCCC(n2nc(C)nc2C)C1` (stereo not drawn) | -6.103 | -6.737 |
| `CSCCNc1ccc(C(=O)N(C)Cc2ccc3ccccc3n2)cn1` | 0.4589 | -12.28 |
| `CCS(=O)(=O)N1CCN(C(C)c2ncc(-c3ccccc3)o2)CC1` (stereo not drawn) | -4.515 | -3.671 |
| `CO[C@H]1CCN(c2nnc(C)s2)C[C@@H]1Cc1cccc(C)c1` | 7.822 | -28.63 |
| `CCCc1cc(=O)[nH]c2nnc(SCC(=O)OCC)n12` | 7.209 | 2.873 |
| `COc1cccc(-c2cccc(N3CCC(N[C@@H]4CCOC4)CC3)c2)c1` | 0.2377 | -11.45 |
| `CC(C)N1CCc2c(C#N)c(NCc3ccco3)n3cnnc3c2C1` | 5.49 | -29.54 |
| `CCc1nc(C)c([C@H]2CN(C)C[C@@H]2C(=O)Nc2cccc3cn[nH]c23)[nH]1` | 4.261 | -6.371 |
| `COCCN(CCOC)Cc1nc2c(cnn2C)c(=O)[nH]1` | -4.449 | -10.12 |
| `Cc1cc(NC(=O)N2CCN(C)CC2C)n(Cc2ccccc2)n1` (stereo not drawn) | 3.989 | 3.85 |
| `CC(=O)c1c(C)nn(CC(=O)Nc2ccc(F)cc2)c1C` | -7.3 | 10.37 |
| `COc1ccc(OCC(C)NS(C)(=O)=O)cc1` (stereo not drawn) | 2.29 | -7.338 |
| `CC(C)CN1CC(c2nc(-c3cccc(F)c3)c[nH]2)CC1=O` (stereo not drawn) | 1.844 | -3.896 |
| `CC(=O)N1N=C(c2ccccc2)OC1C(=O)N(C)CCc1ccccc1` (stereo not drawn) | -0.587 | -8.471 |
| `COc1ccc(Cc2c(O)nc(SC)n(-c3ccccc3)c2=O)cc1` | 0.02278 | -10.07 |
| `Cc1cnc(C(=O)N2CCCN(Cc3csc(C)n3)CC2)cn1` | -3.282 | -7.508 |
| `Cc1ccc(CN(C)CC2(O)CCCN(C)C2)o1` (stereo not drawn) | -0.1601 | 18.14 |
| `CS(=O)(=O)N1CCC2(CC1)c1ccccc1[C@@H](N1CCSCC1)[C@@H]2O` | 3.399 | -7.003 |
| `Cc1nc(N2CCOc3ccc(CO)cc3C2)c2c(C)noc2n1` | 11.68 | -11.18 |
| `Cc1oc(-c2ccco2)nc1CN1CCc2cnc(C(C)C)nc2C1` | -0.3772 | -36.61 |
| `c1csc(N2CCN(Cc3nnnn3C3CC3)CC2)n1` | -1.682 | 4.46 |
| `Cc1csc(C2CCCCN2C(=O)c2cnn3ccc(C)nc23)n1` (stereo not drawn) | 1.075 | -5.448 |
| `CN(C)S(=O)(=O)N1CCN(c2nccc(C(F)(F)F)n2)CC1` | 2.098 | -0.5921 |
| `COc1cccc(CC(=O)N2CCCC(c3nncn3C)C2)c1` (stereo not drawn) | -0.4587 | -24.57 |
| `Cc1cc(C2CCCCCN2Cc2cn(C)nc2C)no1` (stereo not drawn) | -0.4336 | -8.518 |
| `NS(=O)(=O)c1ccc(F)c(C(=O)NCCSc2ccccn2)c1` | 3.561 | -3.414 |
| `CC(C)n1nc(CN2CCCC2=O)c2c1CN(C(=O)c1ccc[nH]1)C2` | 4.309 | -13.09 |
| `CC(=O)c1ccc(N2CCC3(CCC(=O)N(CCCO)C3)CC2)nc1` | 4.098 | -2.658 |
| `Cc1nc(NC2CCS(=O)(=O)CC2)cc(C2CCCNC2)n1` (stereo not drawn) | 4.651 | -14.6 |
| `Cc1n[nH]c(C)c1-c1nccnc1CC1CCNC1` (stereo not drawn) | 0.03377 | -24.13 |
| `CC(C)NC(=O)N1CCN2C(=O)OC[C@H]2C1` | -6.836 | -8.612 |
| `CC1CN(C)c2ccccc2CN1C(=O)c1ccc[nH]1` (stereo not drawn) | 5.436 | -6.959 |
| `O=C([C@H]1C[C@H]2OCC[C@H]2N(Cc2ccc(F)cc2)C1)N1CCCCO1` | -3.068 | 8.914 |
| `COc1ccc(C2CCCCCN2S(=O)(=O)N(C)C)cc1` (stereo not drawn) | 3.53 | 4.227 |
| `CNC(=O)c1cnc2c(C)csc2c1` | -2.006 | 2.298 |
| `CC1=N[C@@]2(CC[C@@H]3CN(CC(=O)N(C)C)C[C@@H]32)C(=O)N1CC(C)C` | -7.895 | 24.16 |
| `O=C1CO[C@H]2CN(Cc3ccccc3Br)C[C@@H]2N1` | -3.309 | -8.581 |
| `Cc1cccc(CN(C(=O)NCc2ccccn2)C2CC2)c1` | -0.3164 | -63.22 |
| `COCCOc1ccc(NC(=O)N(CCO)C2CC2)cn1` | 6.021 | -2.5 |
| `CCc1noc(CNc2nc(-c3cccnc3)nc3c2CCNCC3)n1` | -2.036 | 0.8683 |
| `Cc1nnc(CSc2ccccn2)o1` | 3.085 | -0.208 |
| `Cc1nccc(CNC(=O)NCCC(=O)N2CCCc3ccccc32)n1` | -0.2236 | 5.298 |
| `Cn1c(C(=O)NCC2(N)CCCC2)cc2ccccc21` | 2.707 | -15.94 |
| `Cc1ccc(C#N)c(N2CCC3(CCC(=O)N(CC(N)=O)C3)CC2)n1` | 3.995 | -50.19 |
| `O=C(NCc1cccs1)[C@]12COC[C@H]1CN(c1ncccn1)C2` | -0.1825 | -3.781 |
| `CCc1nc(CN2CCN(C(=O)N3CCCCC3)CC2)cs1` | -0.01406 | -9.289 |
| `COc1ccccc1CCNC(=O)CN1CCCC1c1noc(C)n1` (stereo not drawn) | -1.613 | 6.126 |
| `CC(Nc1cccc(CN2CCOC2=O)c1)C(=O)N1CCNC1=O` (stereo not drawn) | -0.422 | 9.265 |
| `Cc1cccc(CNC(Cc2ccsc2)c2nccs2)n1` (stereo not drawn) | 3.356 | -47.22 |
| `COc1ccccc1-c1nc(C(=O)N(C)C)n2ccncc12` | 4.295 | -315.7 |

Once more, the final 8:

structure	PfKRS1	ClpP1P2
Cn1c(C(=O)NCC2(N)CCCC2)cc2ccccc21	2.707	-15.94
Cc1ccc(C#N)c(N2CCC3(CCC(=O)N(CC(N)=O)C3)CC2)n1	3.995	-50.19
O=C(NCc1cccs1)[C@]12COC[C@H]1CN(c1ncccn1)C2	-0.1825	-3.781
CCc1nc(CN2CCN(C(=O)N3CCCCC3)CC2)cs1	-0.01406	-9.289
COc1ccccc1CCNC(=O)CN1CCCC1c1noc(C)n1 (stereo not drawn)	-1.613	6.126
CC(Nc1cccc(CN2CCOC2=O)c1)C(=O)N1CCNC1=O (stereo not drawn)	-0.422	9.265
Cc1cccc(CNC(Cc2ccsc2)c2nccs2)n1 (stereo not drawn)	3.356	-47.22
COc1ccccc1-c1nc(C(=O)N(C)C)n2ccncc12	4.295	-315.7